From article PMC10826115
Results are given in words; binding and its absence hold for the method and conditions named. In cells and extracts the contact can be indirect. Some binding calls cover weakened binding; strength is not graded here.

Amino acid sequences for entries named in this document (tags omitted). Residues count along the entry.
UniProt Q61362, residues 30-389: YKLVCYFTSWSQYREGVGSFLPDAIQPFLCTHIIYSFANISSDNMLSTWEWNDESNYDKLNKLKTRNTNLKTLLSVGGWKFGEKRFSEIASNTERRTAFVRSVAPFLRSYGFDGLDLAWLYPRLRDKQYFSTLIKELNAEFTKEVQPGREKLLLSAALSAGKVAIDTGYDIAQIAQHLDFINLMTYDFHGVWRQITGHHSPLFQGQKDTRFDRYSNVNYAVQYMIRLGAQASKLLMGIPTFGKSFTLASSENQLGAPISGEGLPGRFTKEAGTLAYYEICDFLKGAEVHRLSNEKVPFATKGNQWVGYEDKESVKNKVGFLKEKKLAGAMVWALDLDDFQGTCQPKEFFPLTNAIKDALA

Biological target: T1, IL-13 receptor α-chain 2 (IL13Rα2) (mouse (endogenous in BMMs)) (UniProt O88786)
T1 sequence: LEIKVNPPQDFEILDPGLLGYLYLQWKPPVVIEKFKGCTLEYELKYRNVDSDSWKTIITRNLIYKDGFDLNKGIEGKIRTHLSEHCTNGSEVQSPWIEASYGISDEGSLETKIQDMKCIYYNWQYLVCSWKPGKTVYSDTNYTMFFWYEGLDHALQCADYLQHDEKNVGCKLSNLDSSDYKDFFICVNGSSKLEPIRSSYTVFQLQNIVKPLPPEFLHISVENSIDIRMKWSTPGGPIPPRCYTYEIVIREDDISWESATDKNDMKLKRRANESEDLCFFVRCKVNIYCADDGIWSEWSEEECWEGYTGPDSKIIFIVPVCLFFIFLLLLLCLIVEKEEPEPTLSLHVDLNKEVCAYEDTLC
Experiment: co-IP; lysate of mouse BMMs incubated 24 h with or without 100 ng/mL RANKL; anti-Chi3l1 (AF2649) or anti-IL13Rα2 (sc-134,363) on Protein A + G magnetic beads, overnight at 4 °C, washed with 1x TBST; Western blot; species-matched IgG controls

binding: binds
Substance: Chitinase 3-like 1 (Chi3l1) (from UniProt Q61362 30-389) (ligand)
